Test results reported in the supplement of paper PMC12067093, “Discovery and optimisation of a covalent ligand for TRIM25 and its application to targeted protein ubiquitination” (Chemical Science, 2025).
The list shows a part of the results.

Chains of the proteins cited; added tags and fusions are not shown. Lines headed by an entry give the natural chain unless they say otherwise; changes in a name come on top.
UniProt P50990: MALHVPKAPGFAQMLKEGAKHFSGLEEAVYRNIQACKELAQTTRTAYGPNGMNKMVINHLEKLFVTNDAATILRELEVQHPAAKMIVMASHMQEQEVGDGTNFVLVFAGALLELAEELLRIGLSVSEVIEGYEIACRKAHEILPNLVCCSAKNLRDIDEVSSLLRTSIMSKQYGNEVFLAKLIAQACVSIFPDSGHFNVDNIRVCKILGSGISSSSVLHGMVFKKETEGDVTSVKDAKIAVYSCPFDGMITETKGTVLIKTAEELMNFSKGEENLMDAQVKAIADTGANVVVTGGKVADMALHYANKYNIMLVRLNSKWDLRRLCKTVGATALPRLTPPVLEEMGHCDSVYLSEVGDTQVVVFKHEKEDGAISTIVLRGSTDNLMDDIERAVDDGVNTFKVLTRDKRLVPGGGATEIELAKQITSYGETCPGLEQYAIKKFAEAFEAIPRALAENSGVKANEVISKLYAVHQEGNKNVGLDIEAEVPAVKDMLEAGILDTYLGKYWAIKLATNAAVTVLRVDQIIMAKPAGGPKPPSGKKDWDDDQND
UniProt O60508: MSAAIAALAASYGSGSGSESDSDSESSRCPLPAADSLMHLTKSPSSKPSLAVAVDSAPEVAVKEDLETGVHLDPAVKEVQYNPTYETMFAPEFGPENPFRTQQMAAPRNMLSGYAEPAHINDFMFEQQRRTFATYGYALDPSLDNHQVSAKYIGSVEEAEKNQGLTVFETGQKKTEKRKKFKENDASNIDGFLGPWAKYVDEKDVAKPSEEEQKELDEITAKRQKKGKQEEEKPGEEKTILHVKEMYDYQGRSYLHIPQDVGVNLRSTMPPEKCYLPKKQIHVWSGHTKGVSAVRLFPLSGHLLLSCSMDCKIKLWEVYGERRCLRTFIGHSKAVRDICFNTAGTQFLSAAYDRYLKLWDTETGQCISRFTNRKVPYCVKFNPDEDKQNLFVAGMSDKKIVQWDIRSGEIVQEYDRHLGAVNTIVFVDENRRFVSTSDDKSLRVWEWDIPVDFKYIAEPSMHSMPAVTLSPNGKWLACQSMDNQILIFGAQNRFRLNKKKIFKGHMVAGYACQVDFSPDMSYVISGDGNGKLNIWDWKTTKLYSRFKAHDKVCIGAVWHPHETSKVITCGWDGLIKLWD
UniProt Q99832: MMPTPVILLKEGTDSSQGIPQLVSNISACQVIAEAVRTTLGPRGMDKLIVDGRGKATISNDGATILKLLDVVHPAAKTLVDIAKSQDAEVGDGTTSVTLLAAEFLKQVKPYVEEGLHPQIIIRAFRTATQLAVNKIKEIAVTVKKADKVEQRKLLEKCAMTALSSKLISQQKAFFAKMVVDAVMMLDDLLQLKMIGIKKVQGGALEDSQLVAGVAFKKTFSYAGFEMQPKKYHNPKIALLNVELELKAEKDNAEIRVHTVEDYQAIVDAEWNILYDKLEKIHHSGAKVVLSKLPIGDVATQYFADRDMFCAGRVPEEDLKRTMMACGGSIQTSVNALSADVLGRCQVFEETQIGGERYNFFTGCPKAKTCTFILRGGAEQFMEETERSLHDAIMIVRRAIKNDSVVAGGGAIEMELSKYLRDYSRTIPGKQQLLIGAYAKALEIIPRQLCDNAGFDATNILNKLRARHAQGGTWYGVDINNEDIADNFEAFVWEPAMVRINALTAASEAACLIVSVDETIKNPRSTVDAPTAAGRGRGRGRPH
UniProt Q8TEP8: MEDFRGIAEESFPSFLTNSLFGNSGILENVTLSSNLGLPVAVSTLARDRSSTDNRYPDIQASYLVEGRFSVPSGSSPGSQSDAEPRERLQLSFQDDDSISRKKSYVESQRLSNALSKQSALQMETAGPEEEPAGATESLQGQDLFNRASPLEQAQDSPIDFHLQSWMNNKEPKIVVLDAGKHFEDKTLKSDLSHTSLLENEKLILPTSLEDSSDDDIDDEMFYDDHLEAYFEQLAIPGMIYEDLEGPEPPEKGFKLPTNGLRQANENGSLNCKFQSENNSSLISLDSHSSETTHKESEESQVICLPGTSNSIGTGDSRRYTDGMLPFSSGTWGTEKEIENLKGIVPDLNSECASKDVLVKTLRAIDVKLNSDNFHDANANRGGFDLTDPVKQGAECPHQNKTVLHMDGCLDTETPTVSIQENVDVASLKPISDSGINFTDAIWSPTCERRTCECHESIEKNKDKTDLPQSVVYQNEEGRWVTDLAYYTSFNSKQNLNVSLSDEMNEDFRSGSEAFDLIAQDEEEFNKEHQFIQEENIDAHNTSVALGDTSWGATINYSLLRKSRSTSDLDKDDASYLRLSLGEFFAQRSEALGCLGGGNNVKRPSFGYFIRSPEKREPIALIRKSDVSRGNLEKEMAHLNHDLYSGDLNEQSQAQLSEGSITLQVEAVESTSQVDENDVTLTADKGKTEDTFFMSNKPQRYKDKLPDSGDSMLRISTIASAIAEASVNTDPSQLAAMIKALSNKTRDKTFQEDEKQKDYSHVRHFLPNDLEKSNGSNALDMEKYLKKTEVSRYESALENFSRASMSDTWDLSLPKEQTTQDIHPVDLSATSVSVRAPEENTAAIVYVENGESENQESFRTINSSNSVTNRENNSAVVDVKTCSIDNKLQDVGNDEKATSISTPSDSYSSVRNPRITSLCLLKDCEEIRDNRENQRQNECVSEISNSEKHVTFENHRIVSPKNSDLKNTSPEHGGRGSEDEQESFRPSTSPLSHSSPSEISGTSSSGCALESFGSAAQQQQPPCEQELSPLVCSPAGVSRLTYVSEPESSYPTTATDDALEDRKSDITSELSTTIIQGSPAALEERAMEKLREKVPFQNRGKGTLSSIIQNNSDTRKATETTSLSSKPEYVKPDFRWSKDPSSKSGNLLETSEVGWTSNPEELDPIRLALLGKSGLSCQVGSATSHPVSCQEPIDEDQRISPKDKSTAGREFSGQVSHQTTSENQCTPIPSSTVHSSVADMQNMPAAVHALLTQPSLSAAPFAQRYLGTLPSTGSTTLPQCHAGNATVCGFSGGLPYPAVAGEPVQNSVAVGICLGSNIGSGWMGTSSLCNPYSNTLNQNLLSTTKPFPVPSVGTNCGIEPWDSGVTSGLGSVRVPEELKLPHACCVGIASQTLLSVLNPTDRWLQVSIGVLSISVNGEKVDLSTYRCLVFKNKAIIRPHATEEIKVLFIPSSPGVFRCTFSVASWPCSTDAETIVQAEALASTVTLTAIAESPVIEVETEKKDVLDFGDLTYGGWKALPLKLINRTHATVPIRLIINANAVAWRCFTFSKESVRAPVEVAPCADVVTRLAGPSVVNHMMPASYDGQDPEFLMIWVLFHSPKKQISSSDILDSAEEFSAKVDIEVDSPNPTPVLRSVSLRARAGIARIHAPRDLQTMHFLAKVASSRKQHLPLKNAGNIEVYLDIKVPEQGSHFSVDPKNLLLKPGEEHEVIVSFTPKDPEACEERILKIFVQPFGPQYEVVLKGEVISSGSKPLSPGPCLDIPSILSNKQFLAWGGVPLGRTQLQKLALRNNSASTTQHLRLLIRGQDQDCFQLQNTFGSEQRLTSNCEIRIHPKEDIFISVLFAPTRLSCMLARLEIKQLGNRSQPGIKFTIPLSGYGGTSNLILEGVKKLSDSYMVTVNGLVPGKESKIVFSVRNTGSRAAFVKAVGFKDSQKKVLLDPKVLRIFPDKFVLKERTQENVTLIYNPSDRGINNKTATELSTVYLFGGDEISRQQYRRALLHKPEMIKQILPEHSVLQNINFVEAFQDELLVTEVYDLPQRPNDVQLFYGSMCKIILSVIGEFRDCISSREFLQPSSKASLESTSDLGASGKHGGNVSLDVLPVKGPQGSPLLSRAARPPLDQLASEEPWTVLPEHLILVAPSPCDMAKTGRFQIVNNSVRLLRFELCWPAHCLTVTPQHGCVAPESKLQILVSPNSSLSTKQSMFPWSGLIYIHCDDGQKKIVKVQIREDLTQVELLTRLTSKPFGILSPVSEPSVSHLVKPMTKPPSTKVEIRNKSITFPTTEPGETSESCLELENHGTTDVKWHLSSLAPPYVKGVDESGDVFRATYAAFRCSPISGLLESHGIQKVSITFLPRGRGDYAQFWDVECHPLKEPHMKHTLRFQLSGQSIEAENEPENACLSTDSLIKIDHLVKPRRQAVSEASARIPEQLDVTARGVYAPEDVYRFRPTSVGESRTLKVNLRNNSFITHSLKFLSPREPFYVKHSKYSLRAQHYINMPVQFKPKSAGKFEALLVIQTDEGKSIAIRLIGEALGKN
UniProt Q6ZMG9: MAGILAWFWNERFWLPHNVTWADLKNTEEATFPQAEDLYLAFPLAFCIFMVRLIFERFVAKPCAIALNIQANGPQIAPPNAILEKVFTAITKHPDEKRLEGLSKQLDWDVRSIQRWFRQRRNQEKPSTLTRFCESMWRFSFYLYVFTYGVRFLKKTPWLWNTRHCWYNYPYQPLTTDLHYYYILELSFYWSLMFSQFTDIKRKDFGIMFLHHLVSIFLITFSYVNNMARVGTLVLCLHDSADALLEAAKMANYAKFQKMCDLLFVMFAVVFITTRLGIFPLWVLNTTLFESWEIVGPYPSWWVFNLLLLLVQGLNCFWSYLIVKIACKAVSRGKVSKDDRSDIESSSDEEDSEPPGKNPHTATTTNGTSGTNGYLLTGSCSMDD
UniProt Q96H22, whole entry: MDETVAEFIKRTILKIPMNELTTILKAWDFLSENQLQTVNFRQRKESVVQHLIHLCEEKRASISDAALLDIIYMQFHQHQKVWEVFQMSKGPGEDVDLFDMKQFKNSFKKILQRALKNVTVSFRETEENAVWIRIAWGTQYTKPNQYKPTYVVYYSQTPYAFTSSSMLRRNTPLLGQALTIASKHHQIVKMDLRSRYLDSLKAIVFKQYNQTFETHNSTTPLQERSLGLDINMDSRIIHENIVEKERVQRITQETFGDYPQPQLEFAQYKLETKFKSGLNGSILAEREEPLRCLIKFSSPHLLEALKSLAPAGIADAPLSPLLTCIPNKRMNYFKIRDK
UniProt Q69YH5: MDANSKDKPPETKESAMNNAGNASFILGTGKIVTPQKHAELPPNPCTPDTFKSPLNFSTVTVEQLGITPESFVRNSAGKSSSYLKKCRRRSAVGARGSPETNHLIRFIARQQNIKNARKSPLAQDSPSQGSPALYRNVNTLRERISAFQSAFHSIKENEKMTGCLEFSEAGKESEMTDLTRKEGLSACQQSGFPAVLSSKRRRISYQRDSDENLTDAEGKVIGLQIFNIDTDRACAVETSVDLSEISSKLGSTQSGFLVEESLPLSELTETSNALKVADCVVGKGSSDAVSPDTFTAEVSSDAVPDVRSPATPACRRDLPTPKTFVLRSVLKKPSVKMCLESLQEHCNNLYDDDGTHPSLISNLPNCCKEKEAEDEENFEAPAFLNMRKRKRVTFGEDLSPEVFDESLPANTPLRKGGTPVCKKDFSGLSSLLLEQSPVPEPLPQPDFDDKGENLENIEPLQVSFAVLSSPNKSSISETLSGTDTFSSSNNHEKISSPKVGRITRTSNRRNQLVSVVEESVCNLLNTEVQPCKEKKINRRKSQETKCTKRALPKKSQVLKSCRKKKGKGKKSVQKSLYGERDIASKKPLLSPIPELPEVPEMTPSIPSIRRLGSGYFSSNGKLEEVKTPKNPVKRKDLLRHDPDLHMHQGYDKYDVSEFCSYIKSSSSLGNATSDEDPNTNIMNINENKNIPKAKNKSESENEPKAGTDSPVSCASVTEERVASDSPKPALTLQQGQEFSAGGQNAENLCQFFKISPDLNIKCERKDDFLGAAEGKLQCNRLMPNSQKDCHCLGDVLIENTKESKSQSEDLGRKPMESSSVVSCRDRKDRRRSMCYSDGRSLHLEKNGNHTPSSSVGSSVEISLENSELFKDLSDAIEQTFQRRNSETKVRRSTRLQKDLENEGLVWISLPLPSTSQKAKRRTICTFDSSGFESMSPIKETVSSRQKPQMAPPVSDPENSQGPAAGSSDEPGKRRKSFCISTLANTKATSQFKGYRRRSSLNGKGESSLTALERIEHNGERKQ
UniProt Q92879: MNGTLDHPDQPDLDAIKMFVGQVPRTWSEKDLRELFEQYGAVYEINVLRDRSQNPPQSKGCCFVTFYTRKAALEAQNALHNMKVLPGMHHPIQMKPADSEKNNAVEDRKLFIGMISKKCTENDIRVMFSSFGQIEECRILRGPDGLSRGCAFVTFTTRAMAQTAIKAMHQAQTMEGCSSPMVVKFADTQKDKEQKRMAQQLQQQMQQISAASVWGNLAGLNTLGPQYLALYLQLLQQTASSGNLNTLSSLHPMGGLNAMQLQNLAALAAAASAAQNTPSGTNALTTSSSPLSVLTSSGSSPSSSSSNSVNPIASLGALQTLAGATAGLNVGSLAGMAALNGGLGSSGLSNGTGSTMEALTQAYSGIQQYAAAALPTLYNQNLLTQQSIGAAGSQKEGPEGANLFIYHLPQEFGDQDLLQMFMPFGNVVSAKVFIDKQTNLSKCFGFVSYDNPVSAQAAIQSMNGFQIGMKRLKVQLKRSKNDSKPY
UniProt Q9NRR8: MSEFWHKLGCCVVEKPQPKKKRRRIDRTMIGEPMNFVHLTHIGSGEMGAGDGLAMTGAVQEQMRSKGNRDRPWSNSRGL

Compound: Cc1cc(ccc1-c1ccccc1)C(=O)N1CCCN(CC1)C(=O)CCl [compound 10]
Test: probe-labelled cysteine peptide fold change vs DMSO (competition) (log2 fold change); higher = less target engagement (more negative = stronger competition)
Conditions: THP-1, incubation time: 4 h
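Also: competitive profiling in live THP-1 cells: cysteine peptides tagged with an iodoacetamide desthiobiotin (IA-DTB) probe, intensity after compound treatment relative to DMSO-treated cells.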

With CCT8_P50990_36_NIQACK (UniProt P50990) as the target, how does the “probe-labelled cysteine peptide fold change” value (10 µM) read?
Its value is 0.094.

What about the “probe-labelled cysteine peptide fold change” value (50 µM) of the same target?
The value was 0.176.

Which “probe-labelled cysteine peptide fold change” value (10 µM) does the source give for “CDC40_O60508_378_KVPYCVK (UniProt O60508)” here?
Its value is -0.335.

And the “probe-labelled cysteine peptide fold change” value (50 µM)?
The value was -0.733.

How did the “probe-labelled cysteine peptide fold change” value (10 µM) turn out when “CELF2_O95319_85+86_GCCFVTFYTR (UniProt O95319)” was run?
The value was -0.178.

What about the “probe-labelled cysteine peptide fold change” value (50 µM) of the same target?
The value was -0.561.

With “CCT7_Q99832_310_LPIGDVATQYFADRDMFCAGR (UniProt Q99832)” as the target, how does the “probe-labelled cysteine peptide fold change” value (10 µM) read?
The value was -0.113.

And the “probe-labelled cysteine peptide fold change” value (50 µM)?
The value was -0.214.

Which “probe-labelled cysteine peptide fold change” value (10 µM) does the source give for “CEP192_Q8TEP8_352_GIVPDLNSECASK (UniProt Q8TEP8)” here?
The value was -0.225.

What about the “probe-labelled cysteine peptide fold change” value (50 µM) of the same target?
Its value is -0.496.

Which “probe-labelled cysteine peptide fold change” value (10 µM) does the source give for “CEP63_Q96MT8_108_LHEELCILK (UniProt Q96MT8)” here?
The value was -0.278.

And the “probe-labelled cysteine peptide fold change” value (50 µM)?
Its value is -0.235.

Which “probe-labelled cysteine peptide fold change” value (10 µM) does the source give for “CEP170_Q5SW79_30_DDCELMLQSR (UniProt Q5SW79)” here?
The value was -0.0456.

What about the “probe-labelled cysteine peptide fold change” value (50 µM) of the same target?
Its value is 0.0936.

Which results are given for “CEP128_Q6ZU80_839_EIDAACK (UniProt Q6ZU80)”?
probe-labelled cysteine peptide fold change (10 µM): 0.0721; probe-labelled cysteine peptide fold change (50 µM): -0.000557

“CDC27_P30260_503_EAINILSHLPSHHYNTGWVLCQIGR (UniProt P30260)” was tested. Which “probe-labelled cysteine peptide fold change” value (10 µM) did it give?
The value was 0.179.

What about the “probe-labelled cysteine peptide fold change” value (50 µM) of the same target?
Its value is 0.123.

With “CENPP_Q6IPU0_22_ACEDPPAPWEEK (UniProt Q6IPU0)” as the target, how does the “probe-labelled cysteine peptide fold change” value (10 µM) read?
The value was -0.0252.

And the “probe-labelled cysteine peptide fold change” value (50 µM)?
Its value is -0.0362.

“CDC16_Q13042_163_LDVYCFEAFDLLTSHHMLTAQEEK (UniProt Q13042)” was tested. Which “probe-labelled cysteine peptide fold change” value (10 µM) did it give?
The value was 0.345.

And the “probe-labelled cysteine peptide fold change” value (50 µM)?
Its value is 0.144.

Which results are given for “CEP192_Q8TEP8_272_QANENGSLNCK (UniProt Q8TEP8)”?
probe-labelled cysteine peptide fold change (10 µM): -0.432; probe-labelled cysteine peptide fold change (50 µM): -0.576

What does the source list for “CERS6_Q6ZMG9_236_VGTLVLCLHDSADALLEAAK (UniProt Q6ZMG9)”?
probe-labelled cysteine peptide fold change (10 µM): 0.186; probe-labelled cysteine peptide fold change (50 µM): 0.0157

What does the source list for “CEP250_Q9BV73_1557_QLVTLECLALELEENHHK (UniProt Q9BV73)”?
probe-labelled cysteine peptide fold change (10 µM): 0.0292; probe-labelled cysteine peptide fold change (50 µM): 0.153

How did the “probe-labelled cysteine peptide fold change” value (10 µM) turn out when “CENPN_Q96H22_325_SLAPAGIADAPLSPLLTCIPNKR (UniProt Q96H22)” was run?
The value was -0.161.

What about the “probe-labelled cysteine peptide fold change” value (50 µM) of the same target?
The value was -0.132.

For “CDCA2_Q69YH5_792_DCHCLGDVLIENTK (UniProt Q69YH5)”, which “probe-labelled cysteine peptide fold change” value (10 µM) is on record?
The value was -0.367.

What about the “probe-labelled cysteine peptide fold change” value (50 µM) of the same target?
The value was -0.891.

Which results are given for “CDK5RAP2_Q96SN8_434_SKGDCTIR (UniProt Q96SN8)”?
probe-labelled cysteine peptide fold change (10 µM): 0.216; probe-labelled cysteine peptide fold change (50 µM): 0.11

Which “probe-labelled cysteine peptide fold change” value (10 µM) does the source give for “CCT8_P50990_347_LTPPVLEEMGHCDSVYLSEVGDTQVVVFK (UniProt P50990)” here?
Its value is 0.0548.

What about the “probe-labelled cysteine peptide fold change” value (50 µM) of the same target?
The value was -0.00743.

Which results are given for “CDK14_O94921_402_LLQCSPK (UniProt O94921)”?
probe-labelled cysteine peptide fold change (10 µM): -0.0479; probe-labelled cysteine peptide fold change (50 µM): -0.0855

What does the source list for “CD97_P48960_513_GGHWATEGCQVLGSK (UniProt P48960)”?
probe-labelled cysteine peptide fold change (10 µM): -0.139; probe-labelled cysteine peptide fold change (50 µM): -0.0119

“CDCA2_Q69YH5_714_AGTDSPVSCASVTEER (UniProt Q69YH5)” was tested. Which “probe-labelled cysteine peptide fold change” value (10 µM) did it give?
Its value is -0.456.

And the “probe-labelled cysteine peptide fold change” value (50 µM)?
Its value is -0.149.

With “CELF1_Q92879_119_KCTENDIR (UniProt Q92879)” as the target, how does the “probe-labelled cysteine peptide fold change” value (10 µM) read?
The value was -0.0079.

What about the “probe-labelled cysteine peptide fold change” value (50 µM) of the same target?
The value was 0.125.

“CDK8_P49336_64_QIEGTGISMSACR (UniProt P49336)” was tested. Which “probe-labelled cysteine peptide fold change” value (10 µM) did it give?
Its value is -0.111.

What about the “probe-labelled cysteine peptide fold change” value (50 µM) of the same target?
The value was -0.537.

“CDC42_P60953_105_WVPEITHHCPK (UniProt P60953)” was tested. Which “probe-labelled cysteine peptide fold change” value (10 µM) did it give?
The value was 0.0222.

And the “probe-labelled cysteine peptide fold change” value (50 µM)?
The value was -0.0283.

With “CDC20_Q12834_472_CFELDPAR (UniProt Q12834)” as the target, how does the “probe-labelled cysteine peptide fold change” value (10 µM) read?
The value was 0.0942.

And the “probe-labelled cysteine peptide fold change” value (50 µM)?
The value was -0.00193.

How did the “probe-labelled cysteine peptide fold change” value (10 µM) turn out when “CEP120_Q8N960_762_AKEDCIHQVELER (UniProt Q8N960)” was run?
Its value is 0.0554.

What about the “probe-labelled cysteine peptide fold change” value (50 µM) of the same target?
Its value is -0.117.

For “CDC42SE1_Q9NRR8_11_LGCCVVEKPQPK (UniProt Q9NRR8)”, which “probe-labelled cysteine peptide fold change” value (10 µM) is on record?
Its value is -0.057.

What about the “probe-labelled cysteine peptide fold change” value (50 µM) of the same target?
The value was -0.899.

With “CDK13_Q14004_840_CSNILLNNR (UniProt Q14004)” as the target, how does the “probe-labelled cysteine peptide fold change” value (10 µM) read?
Its value is -0.022.

And the “probe-labelled cysteine peptide fold change” value (50 µM)?
Its value is -0.0201.

“CEP350_Q5VT06_1432_EVTEVLQEATCK (UniProt Q5VT06)” was tested. Which “probe-labelled cysteine peptide fold change” value (10 µM) did it give?
Its value is -0.411.

And the “probe-labelled cysteine peptide fold change” value (50 µM)?
Its value is -0.297.

“CCT7_Q99832_326_RTMMACGGSIQTSVNALSADVLGR (UniProt Q99832)” was tested. Which “probe-labelled cysteine peptide fold change” value (10 µM) did it give?
Its value is 0.0835.

And the “probe-labelled cysteine peptide fold change” value (50 µM)?
Its value is 0.162.

“CELF1_Q92879_137_VMFSSFGQIEECR (UniProt Q92879)” was tested. Which “probe-labelled cysteine peptide fold change” value (10 µM) did it give?
The value was 0.192.

And the “probe-labelled cysteine peptide fold change” value (50 µM)?
The value was 0.0111.

Which results are given for “CDYL_Q9Y232_515_LTAQEACGK (UniProt Q9Y232)”?
probe-labelled cysteine peptide fold change (10 µM): 0.0333; probe-labelled cysteine peptide fold change (50 µM): 0.277

For “CERS6_Q6ZMG9_380_NPHTATTTNGTSGTNGYLLTGSCSMDD (UniProt Q6ZMG9)”, which “probe-labelled cysteine peptide fold change” value (10 µM) is on record?
The value was -0.421.

And the “probe-labelled cysteine peptide fold change” value (50 µM)?
The value was -0.475.

“CCT8_P50990_149_AHEILPNLVCCSAK (UniProt P50990)” was tested. Which “probe-labelled cysteine peptide fold change” value (10 µM) did it give?
Its value is 0.0904.

And the “probe-labelled cysteine peptide fold change” value (50 µM)?
The value was -0.18.

For “CDK5RAP3_Q96JB5_68_INAAIQDMPESEEIAQLLSGSYIHYFHCLR (UniProt Q96JB5)”, which “probe-labelled cysteine peptide fold change” value (10 µM) is on record?
The value was 0.106.

What about the “probe-labelled cysteine peptide fold change” value (50 µM) of the same target?
The value was 0.283.

Which “probe-labelled cysteine peptide fold change” value (10 µM) does the source give for “CDC40_O60508_553_VCIGAVWHPHETSK (UniProt O60508)” here?
The value was 0.104.

And the “probe-labelled cysteine peptide fold change” value (50 µM)?
Its value is 0.0461.

Which “probe-labelled cysteine peptide fold change” value (10 µM) does the source give for “CDK5RAP3_Q96JB5_165_EQFYHSCK (UniProt Q96JB5)” here?
The value was -0.0527.

And the “probe-labelled cysteine peptide fold change” value (50 µM)?
The value was 0.0562.

Which results are given for “CDC123_O75794_9_EHVLHCQFSAWYPFFR (UniProt O75794)”?
probe-labelled cysteine peptide fold change (10 µM): 0.161; probe-labelled cysteine peptide fold change (50 µM): 0.261

With “CENPV_Q7Z7K6_216_AQHTFCK (UniProt Q7Z7K6)” as the target, how does the “probe-labelled cysteine peptide fold change” value (10 µM) read?
The value was 0.0919.

What about the “probe-labelled cysteine peptide fold change” value (50 µM) of the same target?
The value was 0.0649.
